Measurements as given in paper PMC4741504.
No constants are given. Whether binding was seen depends on the method and setting. In cells and extracts the contact can be indirect. Some entries that bind do so weakly or less than the wild type. For part of these data: Tags and fused reporters may be left off the sequences shown.

The chains behind the UniProt entries cited, without tags or fusion partners.
UniProt P59267: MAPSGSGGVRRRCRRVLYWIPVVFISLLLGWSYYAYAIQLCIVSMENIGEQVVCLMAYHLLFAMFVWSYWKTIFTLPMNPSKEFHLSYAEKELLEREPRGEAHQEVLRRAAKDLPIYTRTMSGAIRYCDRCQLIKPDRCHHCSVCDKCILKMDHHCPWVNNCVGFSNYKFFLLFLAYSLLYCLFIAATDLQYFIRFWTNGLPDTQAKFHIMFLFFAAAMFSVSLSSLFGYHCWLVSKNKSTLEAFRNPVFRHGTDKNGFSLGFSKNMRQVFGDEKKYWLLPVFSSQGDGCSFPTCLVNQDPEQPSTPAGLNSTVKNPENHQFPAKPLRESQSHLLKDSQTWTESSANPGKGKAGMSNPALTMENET

Legend:
Assay in all cases: co-IP; HEK 293 cells co-transfected with EGFR-flag and HA-tagged PATs; PATs immunoprecipitated with HA antibody (protein A/G beads, overnight 4°C, RIPA washes), Western blot with HA and EGFR antibodies
[1] = molecular target: T1, HA-tagged mouse palmitoyl acyltransferase 21 (PAT 21) (mouse) (UniProt Q9D270)
T1 sequence: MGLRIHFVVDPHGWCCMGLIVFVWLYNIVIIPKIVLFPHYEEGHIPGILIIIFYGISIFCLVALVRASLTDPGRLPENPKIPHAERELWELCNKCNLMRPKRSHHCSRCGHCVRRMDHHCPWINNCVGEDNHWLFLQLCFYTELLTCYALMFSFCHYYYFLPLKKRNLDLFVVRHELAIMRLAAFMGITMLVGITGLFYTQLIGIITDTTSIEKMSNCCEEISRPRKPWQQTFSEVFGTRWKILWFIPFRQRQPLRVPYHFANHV

[2] = molecular target: HA-tagged mouse palmitoyl acyltransferase 2 (PAT 2) (mouse) (UniProt P59267)
[3] = molecular target: T2, HA-tagged mouse palmitoyl acyltransferase 1 (PAT 1) (mouse) (UniProt Q8R0N9)
T2 sequence: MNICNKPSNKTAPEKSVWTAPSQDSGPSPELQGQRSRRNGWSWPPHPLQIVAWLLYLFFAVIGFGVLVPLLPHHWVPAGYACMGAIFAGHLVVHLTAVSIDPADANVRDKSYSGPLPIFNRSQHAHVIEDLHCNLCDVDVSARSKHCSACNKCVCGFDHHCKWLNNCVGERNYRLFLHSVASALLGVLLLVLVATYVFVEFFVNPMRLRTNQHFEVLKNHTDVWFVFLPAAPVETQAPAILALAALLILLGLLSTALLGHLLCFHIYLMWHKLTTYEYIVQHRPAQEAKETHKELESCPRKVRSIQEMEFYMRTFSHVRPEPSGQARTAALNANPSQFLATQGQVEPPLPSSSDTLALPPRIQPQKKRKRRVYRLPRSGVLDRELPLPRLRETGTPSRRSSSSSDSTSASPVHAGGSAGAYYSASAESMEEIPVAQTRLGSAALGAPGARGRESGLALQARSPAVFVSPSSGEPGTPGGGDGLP

Measured: binding

Flag-tagged wild type full length EGFR (from UniProt P00533 25-1210) (receptor)
binds: all assays above
